Data on 2 substances can be found in paper PMC12287344.

The chains behind the UniProt entries cited, without tags or fusion partners.
UniProt P31273: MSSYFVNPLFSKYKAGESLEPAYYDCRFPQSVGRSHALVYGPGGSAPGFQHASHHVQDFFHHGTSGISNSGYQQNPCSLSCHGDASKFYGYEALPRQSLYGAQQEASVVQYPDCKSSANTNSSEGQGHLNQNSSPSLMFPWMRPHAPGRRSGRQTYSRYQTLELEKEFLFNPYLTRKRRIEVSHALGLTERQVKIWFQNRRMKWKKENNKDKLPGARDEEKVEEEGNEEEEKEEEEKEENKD
UniProt Q13547: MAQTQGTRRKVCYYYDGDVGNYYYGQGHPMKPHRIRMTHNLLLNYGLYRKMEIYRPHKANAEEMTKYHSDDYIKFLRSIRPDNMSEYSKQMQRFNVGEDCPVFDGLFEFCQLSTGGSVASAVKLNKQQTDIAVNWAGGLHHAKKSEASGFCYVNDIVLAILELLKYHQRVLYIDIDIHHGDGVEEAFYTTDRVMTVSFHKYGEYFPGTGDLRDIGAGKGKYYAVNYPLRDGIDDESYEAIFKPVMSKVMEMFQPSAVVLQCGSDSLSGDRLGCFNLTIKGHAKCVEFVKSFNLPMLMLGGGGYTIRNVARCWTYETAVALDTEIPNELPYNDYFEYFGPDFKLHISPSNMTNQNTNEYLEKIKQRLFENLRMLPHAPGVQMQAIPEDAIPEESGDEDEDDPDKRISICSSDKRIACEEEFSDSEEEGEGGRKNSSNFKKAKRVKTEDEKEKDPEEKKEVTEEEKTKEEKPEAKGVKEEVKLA

Assay [1] has as its target Homeobox C8 (HOXC8) (human (endogenous in A549 and H460)) (UniProt P31273). The assay is described as follows: co-IP; endogenous proteins in A549 or H460 lysate (25 mM Tris-HCl pH 7.4, 150 mM NaCl, 1 mM EDTA, 1% NP-40, 5% glycerol); precipitated with HDAC1 or HOXC8 antibody, normal IgG as negative control, Protein G Dynabeads; western blot. (In general: In western blotting, separated proteins are transferred to a membrane and probed.)

Assay [2] deals with HDAC1 (human (endogenous in A549 and H460)) (UniProt Q13547). The assay is described as above.
In assay [3] the target is GST-tagged full length HDAC1 (UniProt Q13547). The assay is described as follows: pull-down; GST-HDAC1 fusion proteins on Glutathione Sepharose 4B beads incubated with A549 cell lysate (20 mM Tris-Cl pH 8.0, 200 mM NaCl, 1 mM EDTA, 0.5% NP-40) for 3 h at 4 °C; HOXC8 detected by western blot; only the target purified.

Results are given in words; binding and its absence hold for the method and conditions named. Binding seen in cells or lysates may run through a third protein. Some results given as binding are weak or reduced against the parent protein; the word gives no strength.

Turning to HDAC1 (from UniProt Q13547 1-482), in assay [1], the binding result is “binds”.
For “Homeobox C8 (HOXC8) (from UniProt P31273 1-242)”, the binding entry in assay [2] and in assay [3] was “binds” throughout.
